From article PMC8946172 come the findings set out here.

The exact form of at least one protein or probe is not confirmed. At least one result comes from cells or an extract, where the contact may be indirect. For part of these data: At least one verdict rests on a figure or table, not on a statement of the authors. For part of these data: Tags and fusion partners may be left off the protein sequences shown.

Data set [1] has as its target Integrin alpha3 (CD49c) on intact TNBC cells (MDA-MB-231, HCC38) (Homo sapiens) (UniProt P26006). Put plainly: competition with PE-anti-CD49c (C3 II.1), flow cytometry. The settings on record: 1 uM aptamer pre-incubated, reduces antibody binding to MDA-MB-231 and HCC38, 5 mM Mg2+; cell binding: 1x PBS, 5 mM MgCl2, 0.1 g/L yeast tRNA, 4.5 g/L glucose, 1 g/L BSA, RT 15-30 min; protein on the cell surface; label: 5'-Cy3; single-stranded DNA. Background: A flow cytometer gives signals particle by particle.

Data set [2] has the same target. Put plainly: flow cytometry on cells, with anti-CD49c pre-incubation. The settings on record: 200 nM aptamer, MDA-MB-231 and HCC38, binding not affected by anti-CD49c, 5 mM Mg2+; cell binding: 1x PBS, 5 mM MgCl2, 0.1 g/L yeast tRNA, 4.5 g/L glucose, 1 g/L BSA, RT 15-30 min; protein on the cell surface; label: 5'-FAM; single-stranded DNA.
For data set [3], the target named is T1, Integrin alpha3 (CD49c), endogenous, from membrane fraction of TNBC cells (MDA-MB-231, HCC38, Hs578T mixture) (Homo sapiens) (UniProt P26006).
T1 sequence (looked up, limits assumed): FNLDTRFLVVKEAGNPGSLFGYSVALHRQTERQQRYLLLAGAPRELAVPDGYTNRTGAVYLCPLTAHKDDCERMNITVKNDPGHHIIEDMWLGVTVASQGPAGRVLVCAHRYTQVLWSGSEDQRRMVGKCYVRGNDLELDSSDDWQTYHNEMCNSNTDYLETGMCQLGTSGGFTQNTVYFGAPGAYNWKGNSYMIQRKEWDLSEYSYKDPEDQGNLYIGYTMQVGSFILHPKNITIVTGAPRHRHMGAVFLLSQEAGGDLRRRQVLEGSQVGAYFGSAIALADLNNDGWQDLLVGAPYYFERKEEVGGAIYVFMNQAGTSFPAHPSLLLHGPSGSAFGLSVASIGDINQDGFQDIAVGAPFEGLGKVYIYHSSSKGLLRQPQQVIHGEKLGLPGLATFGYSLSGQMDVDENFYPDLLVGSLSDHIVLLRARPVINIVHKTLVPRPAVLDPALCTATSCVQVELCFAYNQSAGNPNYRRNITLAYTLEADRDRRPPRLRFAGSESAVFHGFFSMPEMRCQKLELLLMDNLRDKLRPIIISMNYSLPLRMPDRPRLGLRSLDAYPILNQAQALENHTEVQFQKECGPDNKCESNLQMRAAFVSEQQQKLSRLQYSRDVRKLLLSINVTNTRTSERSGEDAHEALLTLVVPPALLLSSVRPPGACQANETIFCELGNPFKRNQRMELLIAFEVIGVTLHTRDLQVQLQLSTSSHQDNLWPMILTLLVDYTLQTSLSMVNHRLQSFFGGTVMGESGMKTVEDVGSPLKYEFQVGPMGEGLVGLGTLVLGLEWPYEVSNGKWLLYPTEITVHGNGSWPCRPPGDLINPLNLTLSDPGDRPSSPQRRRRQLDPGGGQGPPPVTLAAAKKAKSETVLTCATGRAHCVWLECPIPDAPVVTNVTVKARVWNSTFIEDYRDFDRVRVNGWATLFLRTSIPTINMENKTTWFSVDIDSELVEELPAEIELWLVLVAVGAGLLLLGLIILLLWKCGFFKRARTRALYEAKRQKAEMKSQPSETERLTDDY
Put plainly: pull-down with streptavidin beads, silver stain, LC-MS/MS. The settings on record: 5 mM Mg2+, enriched 1143-fold over random ssDNA (p = 1.3e-18); Pull-down: 1x PBS, 5 mM MgCl2, 1% Triton X-100, PMSF, protease inhibitors, 4 C overnight, 2 uM aptamer; protein in an extract; label: 5'-biotin; single-stranded DNA.

Take “ACACCAAAATCGTCCGTTTCGTTTTAGTCCGTCTCTTTAGGGTGT [Cy3-PDGC21T]”: in data set [1], the binding result is on record as “binds”.

Turning to “ACACCAAAATCGTCCGTTTCGTTTTAGTCCGTCTCTTTAGGGTGT [FAM-PDGC21T]”, the binding result in data set [2] is given as “binds”.

As to “ACACCAAAATCGTCCGTTTCGTTTTAGTCCGTCTCTTTAGGGTGT [biotinylated PDGC21T]”, the binding result in data set [3] is “binds”.
